From PubChem BioAssay AID488840 (Broad Institute, 2010)
In all, about 1,400 compounds went through this assay and about 45 (3%) were called active.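 How the source made its calls: active means half-maximal dose of signal decrease from fit no higher than ten times the top valid tested dose; inconclusive means fit invalid, or curve flat with 30 to 70% inhibition; inactive means the rest.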 Some of the results follow. Measured potencies and affinities stand elsewhere.

By UniProt entry, the sequences of proteins in these tests, tags left out. Where a name states a change or a piece, a line headed by the entry shows the natural chain unless it says otherwise.
UniProt O75164: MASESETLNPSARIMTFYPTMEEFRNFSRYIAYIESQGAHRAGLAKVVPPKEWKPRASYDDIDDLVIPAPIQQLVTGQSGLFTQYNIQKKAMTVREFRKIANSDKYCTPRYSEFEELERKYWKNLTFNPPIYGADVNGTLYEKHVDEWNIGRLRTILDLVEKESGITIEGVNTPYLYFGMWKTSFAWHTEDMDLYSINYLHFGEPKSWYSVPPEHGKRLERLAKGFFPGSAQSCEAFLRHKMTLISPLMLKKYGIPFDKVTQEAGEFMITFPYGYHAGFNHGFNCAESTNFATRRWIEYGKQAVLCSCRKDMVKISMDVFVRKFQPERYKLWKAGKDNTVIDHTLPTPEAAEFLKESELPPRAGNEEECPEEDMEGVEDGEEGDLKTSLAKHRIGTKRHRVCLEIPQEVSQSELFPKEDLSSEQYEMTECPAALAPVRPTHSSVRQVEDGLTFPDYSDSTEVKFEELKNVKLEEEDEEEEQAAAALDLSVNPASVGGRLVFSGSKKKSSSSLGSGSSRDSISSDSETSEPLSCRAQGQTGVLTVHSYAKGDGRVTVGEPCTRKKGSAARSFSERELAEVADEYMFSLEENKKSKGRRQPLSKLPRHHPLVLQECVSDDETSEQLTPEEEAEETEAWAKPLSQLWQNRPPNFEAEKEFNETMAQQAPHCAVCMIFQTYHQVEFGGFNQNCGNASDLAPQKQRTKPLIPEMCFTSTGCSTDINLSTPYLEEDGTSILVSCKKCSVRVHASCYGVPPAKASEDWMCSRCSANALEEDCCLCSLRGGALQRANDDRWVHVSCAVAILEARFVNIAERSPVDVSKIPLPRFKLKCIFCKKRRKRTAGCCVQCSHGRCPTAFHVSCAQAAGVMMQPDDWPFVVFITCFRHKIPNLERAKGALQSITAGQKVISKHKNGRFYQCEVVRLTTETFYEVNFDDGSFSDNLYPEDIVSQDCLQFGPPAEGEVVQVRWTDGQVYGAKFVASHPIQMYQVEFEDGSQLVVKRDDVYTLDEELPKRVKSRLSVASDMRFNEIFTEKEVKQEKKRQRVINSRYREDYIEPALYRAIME

What follows are compounds tested against Lysine-specific demethylase 4A (Homo sapiens) (UniProt O75164) (assay: JMJD2A histone demethylase inhibitors, dose response, selectivity assay for GASC-1 inhibitor project, biochemical, DELFIA europium, cherry-picked samples (AID 488840;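 further: europium signal reports the dimethyl H3K9 product detected by antibody so inhibitors lower it; 0% = median of neutral control wells and -100% = median of positive control wells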)). Settings: GST-JMJD2A(1-420) H3K9me3 demethylation; at 6 µM (top of the series) unless noted.

Activity change, negative = inhibition, inactive:
CC(C)(C)c1ccc(S(=O)(=O)/N=C2\C=C(NS(=O)(=O)c3ccccc3)C(=O)c3ccccc32)cc1 2.09%, CCC(C)(C(=O)NC1CCCC1)N(Cc1cccs1)C(C)=O (configuration not stated) 4.25%, CCOc1ccc(C(=O)Nc2nnc(C(C)C)s2)cc1OCC -1.42%, C[C@H]1CN(CCc2ccccc2)C(=O)[C@@H]1CC(=O)NCc1ccccc1 -0.104%, CSc1nc(N)nc2c1ncn2CC(=O)N[C@H](C)c1cccc2ccccc12 6.71%, O=C(CCc1ccc(S(=O)(=O)NCc2ccccc2)cc1)NCc1ccc2c(c1)OCO2 -9.71%, COc1ccc(-c2nn(-c3ccccc3)cc2CNC(C)Cn2cncn2)c(F)c1 (configuration not stated) -7.39%, CC(=O)c1c(C(C)=O)c(C)n(-c2nc(-c3cccs3)c(C)s2)c1C -2.33%, CCOC(=O)c1sc(NC(=O)CSc2nnc(-c3ccc(OC)cc3)n2CCOC)nc1C 2.51%, CC1=C(C(=O)OC(C)C)C(c2ccccc2)NC(=S)N1C (configuration not stated) 0.616%, O=C(c1ccc(Cn2cc([N+](=O)[O-])cn2)o1)N1CCCCCC1 -10.9%, O=C(Nc1nnc(CCS(=O)(=O)c2ccc3ccccc3c2)s1)c1cccs1 3.02%, Cc1nnnn1/C(=C\c1ccccc1)C(=O)OCC(=O)NC(C)(C)C 5.43%, Cc1nc2c3cc(F)ccc3n(Cc3ccccc3)c2s1 -0.947%, O=C(Cc1ccccc1Cl)N1CCN(c2ccccn2)CC1 3.23%, O=C(O)CCCC(=O)Nc1ccc(C(=O)NCc2cccnc2)cc1 0.726%, COc1ccc(OC)c(/C=C/C(=O)Nc2cccc(S(=O)(=O)NC3=NCCCCC3)c2)c1 3.75%, COc1ccc(NC(=O)N(C)C[C@H]2Oc3c(NS(=O)(=O)c4cn(C)cn4)cccc3C(=O)N([C@H](C)CO)C[C@@H]2C)cc1 -8.93%, O=C(Nc1ccccc1)N1CCSCC1 -6.74%, C#CCOCCOCCOCCNc1nc(N2CCOCC2)nc(N2CCN(C(=O)[C@H](CCCN=C(N)N)n3cc(C(N)[C@@H](C)CC)nn3)CC2)n1 (some centres not stated) -0.0332%, Cc1ccc(C(=O)NCc2ccco2)cc1Br -11.6%, N#Cc1ccc(C23OCCN2CCn2nc4ccccc4c23)cc1 (configuration not stated) -0.564%, Cc1cccc(-n2c(SCC(=O)Nc3ccc4c(c3)OCO4)nnc2-c2ccoc2C)c1 -0.58%, CC(C)NC(=O)Nc1ccc2c(c1)C(=O)N([C@H](C)CO)C[C@H](C)[C@@H](CN(C)C(=O)Nc1ccccc1)O2 -1.79%, O=c1[nH]cc(N2CCCCCC2)c(=O)[nH]1 -6.05%, O=C1NCCN1CCNS(=O)(=O)c1ccccc1[N+](=O)[O-] -0.557%, O=C1c2sc3nc4c(c(=O)n3c2C(=O)N1c1ccccc1)CCC4 0.85%, O=c1[nH]c(S)nc2sc3c(c12)CCCC3 2.23%, CCOC(=O)c1c(C)[nH]c(C)c1S(=O)(=O)N(C)CC(=O)N(C)Cc1ccccc1 1.9%, CC(C)C[C@H](NC(=O)N1CCCCCC1)C(=O)O 0.718%, COc1cccc(CSc2nnc(C(F)(F)F)n2Cc2ccc(F)cc2)c1 -0.312%, O=C(COc1ccc(NC(=O)c2ccccc2)cc1)c1ccccc1 -2.8%, Cc1cc2c(cc1C)NC(CC(=O)NCc1ccccc1)C(=O)N2 (configuration not stated) 0.0832%, CCCCNC(=O)c1nn2cc(Br)cnc2c1Br -8.56%, COc1ccc(C(=O)NCc2cccnc2)cc1S(=O)(=O)N1CCOCC1 -1.08%, CS(=O)(=O)N(CC(=O)N1CCCCCC1)c1ccccc1 -5.65%, CC(=O)Nc1ccc(NC(=O)C2CCN(C(=O)c3cccs3)CC2)cc1 -8.37%, O=C(Nc1ccccc1)N(O)c1ccc(Cl)cc1 3.51%, C[C@H](CO)N1C[C@H](C)[C@@H](CN(C)S(=O)(=O)c2ccccc2)Oc2ccc(NS(=O)(=O)c3ccc(F)cc3)cc2C1=O -1.71%, CN1CCN(Cc2c(C#N)c3ccccc3n2C)CC1 -1.82%, COc1ccc(C2C(C#N)=C(N)Oc3c2sc2nc(C)cc(C)c32)cc1 (configuration not stated) 2.34%, CSc1ccccc1C(=O)Nc1ccc(C)c(C)c1 -14.9%, CN(C)c1ccc(N=Cc2nc(-c3ccccc3)oc2OC(=O)c2ccccc2)cc1 6.57%, Cn1c(=N)n(CC(O)c2ccccc2)c2ccccc21 (configuration not stated) 7.12%, Cn1c(=O)c(-c2ccccc2)nn2c3ccccc3nc12 -0.768%, O=C(Cn1nc(-c2ccc(Cl)cc2)ccc1=O)NCC1COCCO1 (configuration not stated) -1.43%, COc1ccc(N/C=C2/CCCCC2=O)cc1 1.06%, COC(=O)CN1C(=O)[C@H]2[C@@H](/C=C/c3ccccc3)N3C(=O)CN(Cc4ccccn4)C(=O)[C@@]3(Cc3ccccc3)[C@H]2C1=O -2.61%, Oc1ccc(-c2nc3ncccn3c2Nc2ccc3c(c2)OCO3)cc1 -0.774%, CCOC(=O)c1c(NC(=O)c2cc(-c3ccc(O)cc3)on2)sc(C(C)=O)c1C -4.51%, CCc1ccc(C(=O)CSc2nc3ccccc3c(=O)[nH]2)cc1 0.536%, Cc1ccc(S(=O)(=O)N2[C@@H](c3ccc(C#N)cc3)C(C(=O)O)=C[C@H]2C(C)(C)C)cc1 -3.84%, CC(=O)c1cccc(NC(=S)NC(=O)CC(C)C)c1 1%, CCOC(=O)C(C)Oc1ccsc1C(=O)OC (configuration not stated) 0.419%, COc1ccc(C(=O)O/N=C(\C)c2cnccn2)cc1 -3.82%, Cc1ccc(S(=O)(=O)NCCC(=O)N2CCN(c3cccc(Cl)c3)CC2)cc1C -0.299%, COC(=O)c1sc(NC(=O)c2cc3c(s2)CCCC3)nc1C 2.35%
